Results: PubChem BioAssay AID493014 (National Center for Advancing Translational Sciences (NCATS), 2011)
This is one part of the list. Shown are side measurements of this screen, not its main read-out; they come without a call. Most of these compounds were active or inconclusive in the main read-out, so they are no random draw. Words in brackets tell the shape of the fitted curve; partial curves, single points and poor fits give uncertain potencies.

Experiment: qHTS Assay to Find Inhibitors of Chronic Active B-Cell Receptor Signaling
Conditions: ABC-DLBCL IkBa-CBG/CBR reporter, luminescence ratio (green luciferase fused to IkBa over red control in TMD8 lymphoma cells), 4 h
Summary of the method: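 TMD8 human ABC-DLBCL cells with doxycycline-inducible IκBα–green luciferase fusion and unfused red luciferase, in 0.5% FBS medium; compounds up to 46 uM, 4 h at 37C. Green/red luminescence ratio, filter-overlap corrected, fitted to concentration-response curves.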

[1] = measured here: CBR red luminescence, cell number
[2] = measured here: IkBa-CBG green luminescence

## CN(C)CCC(=O)c1ccc2c(c1)OCO2
[1]
  AC50: 14.1 µM [falling, partial curve]

## COc1ccc(NC(=O)c2cc(-c3ccc4c(c3)OCO4)on2)cc1
[1]
  AC50: 0.501 µM [falling, full curve]

## C=C(C)Cn1c(CCNC(=O)C(C)C)nc2ccccc21
[1]
  AC50: 0.82 µM [rising, full curve, poor fit]

## Cc1cc(C(=O)COC(=O)c2ccc(O)cc2)c(C)n1CC(F)(F)F
[1]
  AC50: 7.31 µM [falling, partial curve, poor fit]

## CCOC(=O)Cc1csc(NC(NC(=O)OCC)(C(F)(F)F)C(F)(F)F)n1
[1]
  AC50: 29.1 µM [falling, single point]

## NC(=O)C1CCN(C(=O)CNC(=O)c2ccc(Br)o2)CC1
[1]
  AC50: 0.651 µM [falling, partial curve, poor fit]

## COc1cc(/C=N/Nc2ccc(S(N)(=O)=O)cc2[N+](=O)[O-])cc(OC)c1O
[1]
  AC50: 22.4 µM [falling, single point]

## O=C(c1cc2c(s1)-c1ccccc1OC2)N1CCCC1
[1]
  AC50: 20.6 µM [falling, single point]

## CO/N=C/c1ccc(Oc2ccc(C)cc2)nc1
[1]
  AC50: 15.8 µM [rising, partial curve, poor fit]

## CCC1=NN(C(=O)c2ccccc2Br)C(O)(c2ccc(Br)cc2)C1 (stereo unspecified)
[1]
  AC50: 14.1 µM [falling, partial curve, poor fit]

## CC(=O)Oc1ccc(C2(C)CC(C)(C)Oc3cc(OC(C)=O)ccc32)c(OC(C)=O)c1 (stereo unspecified)
[1]
  AC50: 10 µM [falling, partial curve, poor fit]

## OCCN1CCN(C(=S)c2ccc(Cl)cc2)CC1
[1]
  AC50: 0.13 µM [rising, full curve, poor fit]

## COc1cc(NC(=O)c2cccc([N+](=O)[O-])c2C)ccc1NC(=O)c1ccco1
[1]
  AC50: 10.3 µM [rising, partial curve, poor fit]

## O=C(CCNC(=O)c1ccc(Cl)cc1)NCCC1=CCCCC1
[1]
  AC50: 20.6 µM [rising, single point]

## COc1ccc(Cl)c2sc(NC(=O)C3=COCCO3)nc12
[1]
  AC50: 1.3 µM [falling, full curve]
[2]
  AC50: 0.058 µM [rising, full curve, poor fit]

## CCC(CO)Oc1cc(NCc2ccccc2)c2ncn(C3CCCC3)c2c1 (stereo unspecified)
[1]
  AC50: 3.26 µM [rising, partial curve]

## C(=N\Nc1nc2ccccc2[nH]1)/c1cccc2nccnc12
[1]
  AC50: 1.78 µM [falling, full curve]

## CC(C)(C)C1CCc2c(sc(NC(=O)C3CC=CCC3C(=O)O)c2C#N)C1 (stereo unspecified)
[1]
  AC50: 32.6 µM [falling, partial curve, poor fit]

## COc1cc(OC)cc(C(=O)NNC(=O)Cc2ccc(OC)c(S(=O)(=O)N3CCOCC3)c2)c1
[1]
  AC50: 29.1 µM [falling, single point]

## CCOC(=O)N1CCN(C(=O)CSc2nnc(-c3cc(OC)ccc3OC)o2)CC1
[1]
  AC50: 20.6 µM [rising, single point]

## Nc1ccc(-c2nnc(-c3ccc(N)cc3)o2)cc1
[1]
  AC50: 15.8 µM [falling, single point]

## C=CC[C@@H](Cc1ccc(F)cc1)C(=O)OC[C@@H]1CCCN1C(=O)[C@H](CC=C)CC(=O)N[C@H](CO)Cc1ccccc1
[1]
  AC50: 29.1 µM [falling, single point]

## Cc1ccc(Cn2nnc3c(=O)[nH]c(C4CCCN(C(=O)Nc5ccc(F)cc5F)C4)nc32)cc1 (stereo unspecified)
[1]
  AC50: 20 µM [falling, partial curve, poor fit]

## Nc1nn2cc(-c3ccccc3)nc2c2ccccc12
[1]
  AC50: 2.24 µM [falling, full curve]

## COc1ccc(C2(C)NC(=O)N(CC(=O)Nc3ccc(-c4nc5ccc(C)cc5s4)cc3)C2=O)cc1 (stereo unspecified)
[1]
  AC50: 1.58 µM [rising, partial curve]

## CCCCn1c(-c2sccc2C)n[nH]c1=S
[1]
  AC50: 35.5 µM [rising, single point]

## CCOc1ccc(NC(=O)[C@H](C)NC(=O)C2CC(=O)N(c3ccc(OC)cc3)C2)cc1 (stereo partly specified)
[1]
  AC50: 0.112 µM [rising, full curve]

## Cc1c(OC(C)C(=O)NCC2CCC(C(=O)O)CC2)ccc2c(-c3ccccc3)cc(=O)oc12 (stereo unspecified)
[1]
  AC50: 11.2 µM [rising, single point]

## CCC(=O)N1CCc2cc(Br)cc(S(=O)(=O)N3CCN(C(=O)c4ccco4)CC3)c21
[1]
  AC50: 25.9 µM [rising, partial curve]

## COc1ccccc1C1CCN(c2cc(O)ccc2[N+](=O)[O-])CC1
[1]
  AC50: 15.8 µM [falling, single point]

## CCCCCOC(=O)Nc1nnc(CCC)s1
[1]
  AC50: 2 µM [rising, partial curve, poor fit]

## Cc1c(N=C2C(=O)Nc3ccccc32)c(=O)n(-c2ccccc2)n1C
[1]
  AC50: 18.4 µM [falling, single point]

## CCn1c(C)c(C)c2cc(C(=O)NCCCN3CCOCC3)ccc21
[1]
  AC50: 6.31 µM [rising, full curve, poor fit]

## Cc1ccc(-n2nc3c(=O)n(CCCC(=O)NCC(C)c4ccccc4)nc(C)c3c2C)cc1 (stereo unspecified)
[1]
  AC50: 12.6 µM [falling, single point]

## O=C(NN=C1CCCC1)c1ccn[nH]1
[1]
  AC50: 18.4 µM [falling, partial curve, poor fit]

## CN1c2ccc(C=O)c3c(C=O)ccc(c23)N(C)C1(C)C
[1]
  AC50: 7.94 µM [falling, partial curve]

## Cc1cccc(NC(=O)N2CCc3ccccc3C2)c1C
[1]
  AC50: 12.6 µM [falling, partial curve]

## O=C(COc1cccc(F)c1)Oc1ccc(C(=O)c2ccccc2)cc1
[1]
  AC50: 0.731 µM [rising, partial curve, poor fit]

## O=C(CCN1C(=O)c2ccccc2C1=O)Nc1ccc(-c2nc3ccccc3s2)cc1
[1]
  AC50: 13 µM [rising, partial curve, poor fit]

## Cc1ccc2sc(NNC(=O)c3cc(=O)c4ccccc4o3)nc2c1C
[1]
  AC50: 1.26 µM [falling, full curve]

## c1ccc2c(CCNc3ncnc4nc[nH]c34)c[nH]c2c1
[1]
  AC50: 10.3 µM [falling, partial curve]

## COc1ccccc1/C=N/NC(=O)c1ccc(-c2ccccc2)cc1
[1]
  AC50: 5.8 µM [falling, partial curve, poor fit]

## Clc1ccc(-c2nnc(C3CCCCC3)o2)cc1
[1]
  AC50: 0.651 µM [rising, partial curve, poor fit]

## O=C(NCc1cccs1)c1cc(-c2ccccc2)on1
[1]
  AC50: 1.84 µM [falling, full curve]

## OCCSc1nc(-c2ccccc2)nc2ccc(F)cc12
[1]
  AC50: 10 µM [falling, single point]
[2]
  AC50: 2.82 µM [rising, partial curve, poor fit]

## CCOc1ccccc1/C=C/c1cc(C(=O)O)c2ccccc2n1
[1]
  AC50: 2.82 µM [falling, single point]

## Cc1ccc(NC(=O)Cc2sc(C)nc2-c2ccc(C)cc2)cc1
[1]
  AC50: 0.231 µM [rising, full curve, poor fit]

## Cc1ccc(Nc2nc(C(=O)N3CCC(C(=O)N4CCN(C)CC4)CC3)cs2)cc1
[1]
  AC50: 12.6 µM [rising, partial curve]

## COc1cc(/C=N/NC(=O)c2cccs2)ccc1OCc1ccccc1
[1]
  AC50: 35.5 µM [falling, single point]

## CC(=O)N1CSCC1C(=O)N1CCN(c2ccc(N3CCOCC3)nn2)CC1 (stereo unspecified)
[1]
  AC50: 3.26 µM [falling, single point]

## COC(=O)[C@@]12CCCCN1[C@H](c1ccc(-c3ccc(Cl)c(Cl)c3)c(OC)c1)[C@H]1C(=O)N(C)C(=O)[C@H]12
[1]
  AC50: 13 µM [rising, partial curve, poor fit]

## O=C(NC(=S)Nc1ccc(F)cc1)c1ccc2c(c1)OCCO2
[1]
  AC50: 35.5 µM [falling, single point]

## Cc1ccc(-c2ccc(CCC(=O)O)n2Cc2ccco2)cc1
[2]
  AC50: 23.1 µM [rising, single point]

## COc1cccc(N2CC(C(=O)NCc3n[nH]c(=O)c4ccccc34)CC2=O)c1 (stereo unspecified)
[1]
  AC50: 25.9 µM [falling, single point]

## COc1ccc(NS(=O)(=O)c2cc(C)ccc2NC(=O)c2cc(C)oc2C)cc1
[1]
  AC50: 18.4 µM [falling, single point]

## Nc1ncnc2c1ncn2[C@@H]1O[C@H](CNCc2ccccc2)[C@@H](O)[C@H]1O
[1]
  AC50: 32.6 µM [rising, single point]

## O=C(Nc1ccc(Cl)cc1)NC1CCCc2ccccc21 (stereo unspecified)
[1]
  AC50: 0.891 µM [falling, full curve, poor fit]

## CCCc1nnc(NC(=O)C(C)N2C(=O)C3C4C=CC(C4)C3C2=O)s1 (stereo unspecified)
[1]
  AC50: 0.116 µM [rising, full curve]

## O=[N+]([O-])c1cc(C(F)(F)F)ccc1NCCc1c[nH]c2ccccc12
[1]
  AC50: 1.46 µM [rising, partial curve, poor fit]
[2]
  AC50: 18.4 µM [rising, partial curve, poor fit]

## CCOc1cccc(C(=O)NC(=S)Nc2cccc(C)c2)c1
[1]
  AC50: 7.31 µM [falling, partial curve, poor fit]

## Fc1cccc(Nc2ncnc3c2cnn3-c2ccccc2)c1
[1]
  AC50: 8.91 µM [falling, partial curve, poor fit]

## COc1ccc(C)cc1NC(=O)C(OC(=O)Cn1cnc2c1c(=O)n(C)c(=O)n2C)c1ccccc1 (stereo unspecified)
[1]
  AC50: 9.2 µM [rising, partial curve, poor fit]

## Cc1cc2c(OCC(O)CNCc3ccco3)cccc2[nH]1 (stereo unspecified)
[1]
  AC50: 14.1 µM [falling, partial curve, poor fit]
